Results from one PubChem assay

From PubChem BioAssay record AID2202234 (NCATS, 2025).

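HNT-34 acute myeloid leukemia cells exposed to compounds for 48 h, with cell viability measured by CellTiter-Glo luminescence.
Each compound was run as a dilution series that mostly topped out at 46 µM.
The value is the concentration giving half of the fitted maximal loss of viability; smaller values mean stronger inhibitors.
Calls come from the fitted dose curve, and inconclusive marks inhibition that is small, poorly fitted or seen only at the highest dose.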

Values are in µM.
All entries here are filed as inconclusive.
These entries are mostly ones the record files as inconclusive; other results of the assay are not listed here.
A potency from a partial, single-point or poor curve is only a rough figure.
Some entries filed as inconclusive have a full curve.

structure: CC1(C)OCCn2c1nc1c(N3CCOCC3)nc(-c3cnc(N)nc3)nc12
potency (µM): 1.176
curve: inhibitor, full curve

structure: COc1ccc(Nc2cc(-c3cnc(N)nc3)nc(N3CCOCC3)n2)cn1
potency (µM): 1.048
curve: inhibitor, full curve

structure: OC1CCC(Nc2ncc3nc(Nc4c(F)cc(F)cc4F)n([C@@H]4CCOC4)c3n2)CC1 (some centres not stated)
potency (µM): 20.92
curve: inhibitor, partial curve

structure: C[C@@]1(C(=O)Nc2ccc(F)nc2)CCCN1c1nc(Nc2cc(C3CC3)[nH]n2)c2cccn2n1
potency (µM): 3.315
curve: inhibitor, full curve

structure: COc1ccc(-c2coc3cc(O)cc(O)c3c2=O)cc1
potency (µM): 37.2
curve: inhibitor, single point

structure: COc1ccccc1N1CCN(CC(O)COc2cccc3ccccc23)CC1 (configuration not stated)
potency (µM): 2.955
curve: inhibitor, full curve

structure: CC1=C(/C=C/C(C)=C/C=C/C(C)=C/C(=O)O)C(C)(C)CCC1
potency (µM): 0.4174
curve: inhibitor, full curve

structure: Cc1nc(N)ncc1-c1nc(N2CCOCC2)c2sc(C(C)(C)O)cc2n1
potency (µM): 6.615
curve: inhibitor, partial curve

structure: COCCNCc1ccc(-c2cc3nccc(Oc4ccc(NC(=S)NC(=O)Cc5ccc(F)cc5)cc4F)c3s2)nc1
potency (µM): 2.347
curve: inhibitor, full curve, poor fit

structure: CCC[C@H](N[C@H]1CCc2cc(F)cc(F)c2C1)C(=O)Nc1cn(C(C)(C)CNCC(C)(C)C)cn1
potency (µM): 33.15
curve: inhibitor, single point

Some entries from above, unchanged:

COc1ccc(Nc2cc(-c3cnc(N)nc3)nc(N3CCOCC3)n2)cn1 read potency 1.048 µM (inhibitor, full curve).
COCCNCc1ccc(-c2cc3nccc(Oc4ccc(NC(=S)NC(=O)Cc5ccc(F)cc5)cc4F)c3s2)nc1 read potency 2.347 µM (inhibitor, full curve, poor fit).